Assay results as given in patent US9357924B2, “Composition, method, system and kit for optical electrophysiology” (The Research Foundation of State University of New York, priority 2006, dated 2016).
Some entries share one result that the patent states for a list of compounds. At least one compound was matched to its structure with a doubt left.

Tested on: various cardiac tissues
Test: Dye performance in various cardiac tissues compared with di-4-ANEPPS
Settings: Tyrode-perfused and blood-perfused tissues
Method: The dye testing experiments were performed on typical model animals: mice (n=6), rat (n=11), guinea pig (n=6), pig (n=13). All experimental protocols conformed to the Guide for the Care and Use of Laboratory Animals and were approved by the Committee for the Humane Use of Animal of the SUNY Upstate Medical University. Mice (C57BL/6, 20-25 g) were injected with ketamine (200 mg/kg IP), rats (Sprague Dawley, 300-400 g female) and guinea pigs were injected with heparin (550 U/100 g), and euthanized by sodium phentobarbital (1 ml/100 g for rats and 0.75 ml/100 g for guinea pigs). The heart was then immediately excised and placed in ice-cold cardioplegia solution (CPS) composed of (in mmol/l) 280 Glucose, 13.44 KCl, 12.6 NaHCO3, 34 Mannitol. After removal of extraneous tissues, the aorta was cannulated and Langendorff perfusion was started with a standard oxygenated Tyrode's solution (composed of (in mmol/l) 130 NaCl, 24 NaHCO3, 1.2 NaH2PO4, 1.0 MgCl2, 5.6 Glucose, 4.0 KCl, 1.8 CaCl2; buffered to a pH of 7.4) at 80 mm Hg and 36° C. Young pigs (15-20 kg,) were heparinized (500 IU, IV) and subsequently anesthetized with sodium phentobarbital (35 mg/kg IV). […] Perfusion and superfusion temperatures were continuously monitored and kept at 36±1° C. by using two sets of glass heating coils and heated-refrigerated circulators. […]

CCCCN(CCCC)c1ccc2cc(/C=C/C=C/c3cc[n+](CCC[N+](C)(C)C)c4ccccc34)ccc2c1.[Br-].[Br-] [JPW6003, Di-4-ANBDQPQ]
OP amplitude in terms of delta F/F compared to that of di-4-ANEPPS: up to 3 times

Di-4-ANBDQBS [JPW6033]
OP amplitude in terms of delta F/F compared to that of di-4-ANEPPS: up to 3 times
